Taken from: PubChem BioAssay AID1259425 (University of Nebraska Medical Center, 2018)
Shown is one part, drawn at random, of about 14,000 reagents tested. Reagents against one gene are numbered here. Further read-outs or replicates are left out here. The record does not give: the time to read-out.

- Aim: 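Seek colon cancer weak points whose silencing resembles KSR1 loss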 (primary screen)
- Cells: HCT116 human colon cancer cells
- Knock-down reagent: siRNA pool against human genes, 50 nM siRNA
- Read-out: 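After 50 nM siRNA pool, branched-DNA assay measures six marker transcripts per well, minus blank, normalised to the geometric mean of two housekeeping transcripts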
- Direction: BNIP3L mRNA: higher = more BNIP3L transcript after knockdown

| gene knocked down | reagent | BNIP3L mRNA, set 1 |
| --- | --- | --- |
| SLC9A2 | 1 | 0.0747 |
| BCL2L14 | 1 | 0.102 |
| ODAD4 | 1 | 0.102 |
| NDOR1 | 1 | 0.0734 |
| KCNN2 | 1 | 0.092 |
| DHRS7B | 1 | 0.0911 |
| CSN3 | 1 | 0.0805 |
| REST | 1 | 0.0517 |
| ASGR2 | 1 | 0.0347 |
| PLEKHM1 | 1 | 0.151 |
| ATP5MC3 | 1 | 0.094 |
| C1GALT1C1 | 1 | 0.085 |
| NDUFB1 | 1 | 0.112 |
| GPATCH3 | 1 | 0.122 |
| SNCG | 1 | 0.231 |
| TXNDC9 | 1 | 0.11 |
| RIPOR1 | 1 | 0.0704 |
| HECW1 | 1 | 0.0341 |
| RHBDL1 | 1 | 0.104 |
| TOB2 | 1 | 0.107 |
| S100G | 1 | 0.0823 |
| EDDM3B | 1 | 0.0664 |
| ALG12 | 1 | 0.054 |
| FMOD | 1 | 0.0919 |
| H19 | 1 | 0.117 |
| MUS81 | 1 | 0.186 |
| UCHL5 | 1 | 0.0795 |
| OPTC | 1 | 0.0703 |
| PTPN9 | 1 | 0.0535 |
| N4BP2L2 | 1 | 0.857 |
| ETNK2 | 1 | 0.0892 |
| FRAT1 | 1 | 0.0665 |
| COG5 | 1 | 0.152 |
| GSTT4 | 1 | 0.183 |
| LANCL1 | 1 | 0.188 |
| EPX | 1 | 0.095 |
| SRD5A1 | 1 | 0.0941 |
| HHIP | 1 | 0.0655 |
| CHRAC1 | 1 | 0.131 |
| MICAL3 | 1 | 0.0491 |
| MICAL3 | 2 | 0.116 |
| SNTA1 | 1 | 0.187 |
| PIP4P2 | 1 | 0.0616 |
| AQP4 | 1 | 0.0867 |
| SGTA | 1 | 0.165 |
| RXFP4 | 1 | 0.319 |
| LYPLA1 | 1 | 0.128 |
| DRC7 | 1 | 0.138 |
| AOC2 | 1 | 0.112 |
| GIP | 1 | 0.102 |

Quoted from above for reference:
| gene knocked down | reagent | BNIP3L mRNA, set 1 |
| --- | --- | --- |
| FMOD | 1 | 0.0919 |
| H19 | 1 | 0.117 |
| MUS81 | 1 | 0.186 |
| UCHL5 | 1 | 0.0795 |
| OPTC | 1 | 0.0703 |
| PTPN9 | 1 | 0.0535 |
| N4BP2L2 | 1 | 0.857 |
